Results: patent US20140186325A1, “Methods of Cancer Treatment and Prevention Through the Modulation of SIRT4 Activity” (President and Fellows of Harvard College, priority 2011, published 2014)
For at least one compound, name, drawing or mass did not settle the structure.

Legend:
[1] = system: HeLa cells stably over-expressing human SIRT4; test: Survival (propidium iodide staining) of hSIRT4-OE HeLa cells cultured without glucose; assay type: cell-based; conditions: absence of glucose, substance added to the growth medium
[2] = system: HEK293T cells stably over-expressing human SIRT4; test: Survival (propidium iodide staining) of hSIRT4-OE HEK293T cells cultured without glucose; assay type: cell-based; conditions: absence of glucose, substance added to the growth medium

## CC(=O)C(=O)O [pyruvate]
[1]
  survival: Survival was restored
[2]
  survival: Survival was restored
